Test results as given in article doi:10.1101/2025.06.16.658187.
Results are given in words; binding and its absence hold for the method and conditions named. Binding seen in cells or lysates may run through a third protein. Some entries that bind do so weakly or less than the wild type. Sequences can lack the tags named with a protein.

Amino acid sequences for entries named in this document (tags omitted).
UniProt Q13263: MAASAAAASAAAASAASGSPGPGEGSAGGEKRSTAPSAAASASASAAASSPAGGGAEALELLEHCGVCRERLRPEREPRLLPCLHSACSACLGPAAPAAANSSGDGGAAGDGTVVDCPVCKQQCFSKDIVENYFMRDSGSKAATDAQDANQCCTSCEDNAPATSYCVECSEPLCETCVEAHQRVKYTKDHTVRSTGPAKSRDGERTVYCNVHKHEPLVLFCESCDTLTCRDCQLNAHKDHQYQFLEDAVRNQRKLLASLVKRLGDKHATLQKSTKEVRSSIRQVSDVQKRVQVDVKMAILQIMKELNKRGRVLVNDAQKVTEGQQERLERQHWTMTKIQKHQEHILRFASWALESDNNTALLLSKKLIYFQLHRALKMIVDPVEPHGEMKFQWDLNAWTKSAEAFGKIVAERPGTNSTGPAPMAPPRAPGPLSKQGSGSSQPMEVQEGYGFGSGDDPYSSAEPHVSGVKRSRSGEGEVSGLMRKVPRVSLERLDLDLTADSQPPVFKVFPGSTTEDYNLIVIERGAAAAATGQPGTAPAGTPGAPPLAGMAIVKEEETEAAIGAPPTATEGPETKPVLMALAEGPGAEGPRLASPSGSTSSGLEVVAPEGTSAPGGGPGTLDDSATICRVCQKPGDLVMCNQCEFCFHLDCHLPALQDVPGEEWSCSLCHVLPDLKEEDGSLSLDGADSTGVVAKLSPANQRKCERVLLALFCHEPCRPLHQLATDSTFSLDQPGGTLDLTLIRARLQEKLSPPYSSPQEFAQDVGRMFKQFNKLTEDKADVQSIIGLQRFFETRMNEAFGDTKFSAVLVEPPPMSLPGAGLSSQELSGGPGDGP

Tests used:
Flag-tagged COUP-TF2 = molecular target: T1, Flag-tagged COUP-TF2 (UniProt P24468); experiment: co-IP
T1 sequence: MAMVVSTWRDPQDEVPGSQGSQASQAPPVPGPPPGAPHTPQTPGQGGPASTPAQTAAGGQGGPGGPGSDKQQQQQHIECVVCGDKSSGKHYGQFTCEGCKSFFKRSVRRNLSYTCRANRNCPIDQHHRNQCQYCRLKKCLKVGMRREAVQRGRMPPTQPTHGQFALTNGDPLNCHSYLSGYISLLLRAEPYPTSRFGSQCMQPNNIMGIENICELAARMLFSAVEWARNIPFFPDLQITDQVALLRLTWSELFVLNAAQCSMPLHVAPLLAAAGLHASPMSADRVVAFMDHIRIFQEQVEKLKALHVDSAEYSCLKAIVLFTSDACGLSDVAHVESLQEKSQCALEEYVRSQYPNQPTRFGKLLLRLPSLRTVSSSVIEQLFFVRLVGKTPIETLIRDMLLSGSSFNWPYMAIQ

Flag-tagged TR4 = molecular target: T2, Flag-tagged TR4 (UniProt P49116); experiment: co-IP
T2 sequence: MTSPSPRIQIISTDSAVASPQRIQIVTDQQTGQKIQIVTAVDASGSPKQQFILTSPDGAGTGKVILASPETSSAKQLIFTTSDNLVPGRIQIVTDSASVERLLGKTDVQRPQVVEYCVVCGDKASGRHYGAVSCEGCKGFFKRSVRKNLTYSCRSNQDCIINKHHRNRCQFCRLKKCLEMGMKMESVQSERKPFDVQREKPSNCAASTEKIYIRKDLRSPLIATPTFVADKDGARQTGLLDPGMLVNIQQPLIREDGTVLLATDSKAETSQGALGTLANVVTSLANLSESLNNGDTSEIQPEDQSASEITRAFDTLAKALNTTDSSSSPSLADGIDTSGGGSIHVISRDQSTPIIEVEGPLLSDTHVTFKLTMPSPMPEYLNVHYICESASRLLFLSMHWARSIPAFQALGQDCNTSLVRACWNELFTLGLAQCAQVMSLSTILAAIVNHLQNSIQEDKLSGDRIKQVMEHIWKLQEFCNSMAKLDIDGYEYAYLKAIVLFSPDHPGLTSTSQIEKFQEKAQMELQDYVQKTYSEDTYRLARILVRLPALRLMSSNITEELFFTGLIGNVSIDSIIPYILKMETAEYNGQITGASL

binding (Flag-tagged COUP-TF2): binds
binding (Flag-tagged TR4): binds
Substance: Tripartite motif-containing 28 (TRIM28), endogenous in WI38-VA13/2RA cells (from UniProt Q13263 1-835)
